Measurements as given in publication PMC5416842, “The ribosome biogenesis factor yUtp23/hUTP23 coordinates key interactions in the yeast and human pre-40S particle and hUTP23 contains an essential PIN domain” (Nucleic Acids Research, 2017).
Results are given in words; binding and its absence hold for the method and conditions named. Binding seen in cells or lysates may run through a third protein. Some binding calls cover weakened binding; strength is not graded here. Sequences can lack the tags named with a protein.

T1: GST-tagged human hUTP23 (human, UniProt Q9BRU9 1-249)
T1 construct: hUTP23, human; open reading frame amplified from human cDNA; also called GST-hUTP23
T1 sequence (looked up): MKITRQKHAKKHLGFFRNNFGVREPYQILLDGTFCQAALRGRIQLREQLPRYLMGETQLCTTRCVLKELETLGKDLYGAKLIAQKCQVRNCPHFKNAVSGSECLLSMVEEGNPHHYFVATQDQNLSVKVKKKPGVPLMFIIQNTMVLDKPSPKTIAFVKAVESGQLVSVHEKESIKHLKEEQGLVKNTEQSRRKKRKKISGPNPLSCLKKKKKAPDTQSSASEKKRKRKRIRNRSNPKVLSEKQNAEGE

T2: GST-tagged yeast yUtp23 (S. cerevisiae, UniProt Q12339 1-254)
T2 construct: yUtp23, S. cerevisiae; open reading frame amplified from yeast genomic DNA; also called GST-yUtp23
T2 sequence (looked up): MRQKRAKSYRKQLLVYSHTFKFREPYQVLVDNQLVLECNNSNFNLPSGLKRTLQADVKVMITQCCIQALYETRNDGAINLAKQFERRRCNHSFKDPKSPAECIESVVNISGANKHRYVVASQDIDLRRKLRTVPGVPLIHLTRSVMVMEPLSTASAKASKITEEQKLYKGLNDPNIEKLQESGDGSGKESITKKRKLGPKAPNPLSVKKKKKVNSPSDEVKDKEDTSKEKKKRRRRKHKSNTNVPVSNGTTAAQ

B1: hROK1/DDX52, in vitro translated with [35S] methionine (protein, UniProt Q9Y2R4 1-599)
chain: MDVHDLFRRLGAGAKFDTRRFSADAARFQIGKRKYDFDSSEVLQGLDFFGNKKSVPGVCGASQTHQKPQNGEKKEESLTERKREQSKKKRKTMTSEIASQEEGATIQWMSSVEAKIEDKKVQRESKLTSGKLENLRKEKINFLRNKHKIHVQGTDLPDPIATFQQLDQEYKINSRLLQNILDAGFQMPTPIQMQAIPVMLHGRELLASAPTGSGKTLAFSIPILMQLKQPANKGFRALIISPTRELASQIHRELIKISEGTGFRIHMIHKAAVAAKKFGPKSSKKFDILVTTPNRLIYLLKQDPPGIDLASVEWLVVDESDKLFEDGKTGFRDQLASIFLACTSHKVRRAMFSATFAYDVEQWCKLNLDNVISVSIGARNSAVETVEQELLFVGSETGKLLAVRELVKKGFNPPVLVFVQSIERAKELFHELIYEGINVDVIHAERTQQQRDNTVHSFRAGKIWVLICTALLARGIDFKGVNLVINYDFPTSSVEYIHRIGRTGRAGNKGKAITFFTEDDKPLLRSVANVIQQAGCPVPEYIKGFQKLLSKQKKKMIKKPLERESISTTPKCFLEKAKDKQKKVTGQNSKKKVALEDKS
modifications: [35S] methionine label
B2: yUtp23, in vitro translated with [35S] methionine (protein, UniProt Q12339 1-254)
chain: T2 sequence (looked up)
modifications: [35S] methionine label
B3: yRok1, in vitro translated with [35S] methionine (protein, UniProt P45818 1-564)
chain: MDIFRVLTRGASVKKESGPKAKAADYSVINGNDENHKEDNNESQIVKELDFFRNKRIISKVEDDREKTTENDSPNKEEKSGNDDGLIKPVITNTVEASALRKSYKGNVSGIDIPLPIGSFEDLISRFSFDKRLLNNLIENGFTEPTPIQCECIPVALNNRDVLACGPTGSGKTLAFLIPLVQQIIDDKQTAGLKGLIISPTKELANQIFIECFKLSYKIFLEKKRPLQVALLSKSLGAKLKNKVVSDKKYDIIISTPLRLIDVVKNEALDLSKVKHLIFDEADKLFDKTFVEQSDDILSACREPSLRKAMFSATIPSNVEEIAQSIMMDPVRVIIGHKEAANTNIEQKLIFCGNEEGKLIAIRQLVQEGEFKPPIIIFLESITRAKALYHELMYDRINVDVIHAERTALQRDRIIERFKTGELWCLICTDVLARGIDFKGVNLVINYDVPGSSQAYVHRIGRTGRGGRSGKAITFYTKQDSVAIKPIINVMKQSGCEVSEWMDKMAKMTRKEKESIKNGKAHKERKQITTVPKMDKAKRRRQQEMIAASKRRKNEELSKKHFSK
modifications: [35S] methionine label
B4: yKri1, in vitro translated with [35S] methionine (protein, UniProt P42846 1-591)
chain: MPRKKSAAKRAREQAKKEAAVPATDTATIKTSETSATTVKPAIEASKSYVPSEDEEEDEEEEEEEDDYGELITDEVENGINQVLDAIKNNKTDKLLDPKVKFFEDPESAAAKLANREGKHKPIYLKDYHRMNILSGDALKEDDEEYEHATVDGKQSFVSQQREEKTQLLNEIKSAFSDEENEESSGDEDDGFLKKKEPSTKKEGKNLPDPTVNEENFLEEFVNQQAWIPKKGDKVISLDLNNNEEDDEEFEDAAEKFENAYNFRYEDPNAAEIISYARSQATLRRSDDSSRRRKREEKRKIKEQIKAEKETALQKKKTKKLNKLTDILEQLTKEYGAEINADMVKKITDTLLKNDFKEEEWDNVVAELFNEEFYQQEGKPTWNEDDEIMGDFYADADGDDQTEEGEVEKEQKEEDEEEGPKRKKSKKEEKLQKKKEKRKVNELVENALEQNKLALIEEVEKEEEERKSRSRTKEEQDLKFRYREVSPESFGLTAREIFAADDTDLNEFIGLKKFAPYRSKELRAKDKRKVMKARRLREWRKKTFKNENGLAPVEAEAGEKDEDTILIPVEKASKSKHKRGHSHKHKGHQKK
modifications: [35S] methionine label
B5: yNhp2, in vitro translated with [35S] methionine (protein, UniProt P32495 1-156)
chain: MGKDNKEHKESKESKTVDNYEARMPAVLPFAKPLASKKLNKKVLKTVKKASKAKNVKRGVKEVVKALRKGEKGLVVIAGDISPADVISHIPVLCEDHSVPYIFIPSKQDLGAAGATKRPTSVVFIVPGSNKKKDGKNKEEEYKESFNEVVKEVQAL
modifications: [35S] methionine label

Experiments:
[1] = target: T1, GST-tagged human hUTP23; assay: pull-down; GST-tagged yUtp23 or hUTP23 immobilised on glutathione sepharose (pre-blocked with BSA), incubated with [35S] in vitro translates for 1 h at 4°C in Buffer NB (20 mM Tris/HCl pH 7.6, 150 mM NaCl, 8.7% glycerol, 0.1% Tween20); five washes; SDS-PAGE, PhosphorImager; only the target purified
[2] = target: T2, GST-tagged yeast yUtp23; assay: as above

Binder	binding [1]	binding [2]
B1	binds	–
B2	–	binds
B3	–	binds
B4	–	binds
B5	–	binds
